# In PMC7819943, “Rice protein-binding microarrays: a tool to detect cis-acting elements near promoter regions in rice”:
# Chains of the proteins cited; added tags and fusions are not shown.
# UniProt Q0JBA9, entry or part of it: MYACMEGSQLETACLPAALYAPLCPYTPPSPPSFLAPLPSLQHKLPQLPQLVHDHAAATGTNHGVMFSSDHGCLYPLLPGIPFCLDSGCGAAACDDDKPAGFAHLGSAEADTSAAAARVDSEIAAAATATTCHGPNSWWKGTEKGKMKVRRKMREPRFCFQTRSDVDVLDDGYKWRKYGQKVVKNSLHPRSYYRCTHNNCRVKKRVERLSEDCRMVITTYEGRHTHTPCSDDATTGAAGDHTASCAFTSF
# Some of the results follow.
# Target: OsWRKY34 (Oryza sativa, UniProt Q0JBA9 1-250)
# Test: protein-binding microarray (RPBM); PBS, 2% BSA, 51.3 ng/ul salmon testes DNA, 50 uM zinc acetate, 200 nM TF, 25 C, 1 h; high values mean tight binding
# Details: protein: recombinant; tags: N-terminal polyhistidine and DsRed monomer fusion (pET32a); label: CyDye5-dUTP incorporated in the synthesized complementary strand; 3' TTTTT single-stranded linker to array surface; dsDNA, one strand shown
# Method in brief: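 Transcription factors were made in E. coli BL21-CodonPlus as N-terminal fusions to a polyhistidine tag and DsRed, then purified on Ni–NTA. After primer extension with Cy5-dUTP and blocking with 2% BSA, a custom Agilent array was exposed for 1 h at 25 °C to 200 nM protein in PBS, 2% BSA, salmon testes DNA and 50 µM zinc acetate. Washed arrays were scanned on an Axon 4000B, and the binding signal is per-feature fluorescence intensity in arbitrary units.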
row,Sequence,binding signal
1,GTATTGCAATTTTTTTTTGTTTGTGTTGTATCTGTTCTCTCGGAGTCACCTAGTGCAG,8110 fluorescence intensity (a.u.)
2,CCAACCTATTGCATTGCTACCTCATCCATGTACAAATGTTCGGAGTCACCTAGTGCAG,8230 fluorescence intensity (a.u.)
3,TGTACTCCTCTTGCCTTCTATCTATCCCCTGATCCCTCCCCGGAGTCACCTAGTGCAG,8680 fluorescence intensity (a.u.)
4,AACCATAAAACATGTGATTCTTTTTTTTAACCAAAACTTACGGAGTCACCTAGTGCAG,8130 fluorescence intensity (a.u.)
5,CTAGGAATCGCCAACGCTCGTTTCCAGTAGTTCTCTTGTTCGGAGTCACCTAGTGCAG,9500 fluorescence intensity (a.u.)
6,CATACTACCTCCTTTCTTAATATACGACGCTAACGCTGTTCGGAGTCACCTAGTGCAG,8300 fluorescence intensity (a.u.)
7,CGTCACCTCTTCTCGACGCCTTTTCACCTTTTTATTTGCACGGAGTCACCTAGTGCAG,9010 fluorescence intensity (a.u.)
8,GCGCCATCCCTAATTGTCAGTTTTCCCATTTTGAGCTTCCCGGAGTCACCTAGTGCAG,8320 fluorescence intensity (a.u.)
9,CGGCCCAAGCTTCATTGACAAATTGTCTTGAATTTGTACACGGAGTCACCTAGTGCAG,8510 fluorescence intensity (a.u.)
10,GGACGTGCTCTGTGCTTCGCTTTCCCCGTCTGTGGTTGGTCGGAGTCACCTAGTGCAG,8780 fluorescence intensity (a.u.)
11,GAATATCTGCGCCTTGCTTTCACGGCTACCTTCTTTGCTGCGGAGTCACCTAGTGCAG,9260 fluorescence intensity (a.u.)
12,TAGTTTGCGAACAATGGACTGTTATCCGTCAGTTTTTTTTCGGAGTCACCTAGTGCAG,8100 fluorescence intensity (a.u.)
13,AAAACCCGCAGTCACTCACGGGCTTCTCCGCCACTCCGGACGGAGTCACCTAGTGCAG,8160 fluorescence intensity (a.u.)
14,GAGGCGTGGTTTTAAATAGGTTTAATGGTTTGCAGAATTTCGGAGTCACCTAGTGCAG,9080 fluorescence intensity (a.u.)
15,TCCAAACTGCACCAGCGTCTGTTCTTGTTTCTTCAATAGTCGGAGTCACCTAGTGCAG,8280 fluorescence intensity (a.u.)
16,CTATTAATATATAGTTTCACATATCATACACACATTTTGTCGGAGTCACCTAGTGCAG,9080 fluorescence intensity (a.u.)
17,CCTTCTTCGCGAACTTCTTCTCCTCCTAACAAATCAATCACGGAGTCACCTAGTGCAG,9940 fluorescence intensity (a.u.)
18,TGACTTCCCTACGTTCTCCTCTCTCTCTCGGCTTCCACTCCGGAGTCACCTAGTGCAG,9440 fluorescence intensity (a.u.)
19,TTTTTTCAACGTAATTTCTTTTTTAGCATTAACTTTTAAGCGGAGTCACCTAGTGCAG,8630 fluorescence intensity (a.u.)
20,AGGCCCCTTTTGGGTATGGTCGCTGGTTTTCTTTGCAGTTCGGAGTCACCTAGTGCAG,9110 fluorescence intensity (a.u.)
21,CCCGCGTCAGCCCGCCGTCGTCGCCCGCGTCAGCCCCGCCCGGAGTCACCTAGTGCAG,9560 fluorescence intensity (a.u.)

# As a short view, part of the list above:
row,Sequence,binding signal
11,GAATATCTGCGCCTTGCTTTCACGGCTACCTTCTTTGCTGCGGAGTCACCTAGTGCAG,9260 fluorescence intensity (a.u.)
12,TAGTTTGCGAACAATGGACTGTTATCCGTCAGTTTTTTTTCGGAGTCACCTAGTGCAG,8100 fluorescence intensity (a.u.)
13,AAAACCCGCAGTCACTCACGGGCTTCTCCGCCACTCCGGACGGAGTCACCTAGTGCAG,8160 fluorescence intensity (a.u.)

# (next part)

row,Sequence,binding signal
1,CCTCGCTCGTTCAATCTACTCTAATCTATCTCTATAGGAACGGAGTCACCTAGTGCAG,8360 fluorescence intensity (a.u.)
2,GCCACCGCTGCATCATCCCGCCTGTCTGCCTGCGCGCGCCCGGAGTCACCTAGTGCAG,15800 fluorescence intensity (a.u.)
3,TGGCGGCGGCGGTGGCGGCGGGCGGTGCTCTAATCGGGTCCGGAGTCACCTAGTGCAG,8110 fluorescence intensity (a.u.)
4,GCTCCTCTACTTCTTCCTAGTTCCTTCTCGGTTAGCCCTACGGAGTCACCTAGTGCAG,9180 fluorescence intensity (a.u.)
5,TCCTCTGCTACTACCTGACAAGCTTTGCTTTGCTCGCACGCGGAGTCACCTAGTGCAG,8190 fluorescence intensity (a.u.)
6,CACCATTCATTCAATCTAGTTATTATCTGCTGGGTACTCTCGGAGTCACCTAGTGCAG,10800 fluorescence intensity (a.u.)
7,TTCCAAAAGATATTGCCGTTTTTATTTTTGACACCAATAACGGAGTCACCTAGTGCAG,8210 fluorescence intensity (a.u.)
8,TATTAGGTATCCTGTCCTTTGCTTATGATAGAATACTGACCGGAGTCACCTAGTGCAG,8350 fluorescence intensity (a.u.)
9,GCAATTGTGCGGACCACCCAACTAGTTTCTATTTTATACCCGGAGTCACCTAGTGCAG,8120 fluorescence intensity (a.u.)
10,TCAAATAGGCCGTTGACAAATTTGCTGTCGATTTCACCTTCGGAGTCACCTAGTGCAG,10300 fluorescence intensity (a.u.)
11,CCGGCAACTATAGTGCTTTTCCCGCCCACTCACCCGCCCACGGAGTCACCTAGTGCAG,8510 fluorescence intensity (a.u.)
12,CTTAATTATCGTACCAAGGCTGTTTATTTGTTTTCTAAATCGGAGTCACCTAGTGCAG,9390 fluorescence intensity (a.u.)
13,TGACACCATTGAACGTACTTTATCTTTCTGTCCACACATGCGGAGTCACCTAGTGCAG,8660 fluorescence intensity (a.u.)
14,TTATGCCTACCGTCCCGCGCGCTCTACCCTGCCAGCACAACGGAGTCACCTAGTGCAG,9610 fluorescence intensity (a.u.)
15,AGATGACGCCGTTGACTTTTTCTTACATATTTGACCATTCCGGAGTCACCTAGTGCAG,25400 fluorescence intensity (a.u.)
16,TCTCTCGTTCGGCCCATTTCCCCTGCAAAGTTCATATGTTCGGAGTCACCTAGTGCAG,9200 fluorescence intensity (a.u.)
17,GTCTGAACCACAGTTTTTTTTCAACTGAAAACACATGTAACGGAGTCACCTAGTGCAG,8360 fluorescence intensity (a.u.)
18,AGTTCGTCCATCTAGCCTGACTTCATACTTGCTTCACCTGCGGAGTCACCTAGTGCAG,8390 fluorescence intensity (a.u.)
19,TATATATATATATATATATATATCTTGAAAACGTGATGTGCGGAGTCACCTAGTGCAG,9040 fluorescence intensity (a.u.)
20,TCGAAGTACTCAGATTCTACCATGTCGCATTATCTCATCCCGGAGTCACCTAGTGCAG,9640 fluorescence intensity (a.u.)
21,GCTATGCTACTCCTTTTCCTTAGACTTTTGATTTCCTTTTCGGAGTCACCTAGTGCAG,8840 fluorescence intensity (a.u.)

row,Sequence,binding signal
1,CATGTTAATTTTCTACTACAGCTTAGGTTGATGCTATGTTCGGAGTCACCTAGTGCAG,8270 fluorescence intensity (a.u.)
2,GTGGATGTACATAGTTTATGGCCAATTGGACATCCGTGTCCGGAGTCACCTAGTGCAG,8240 fluorescence intensity (a.u.)
3,TCGGATATAGCTTTTCTTTATTTTTCTTTCATCCCTTTTTCGGAGTCACCTAGTGCAG,10700 fluorescence intensity (a.u.)
4,AGTAGTAGTGTATTTCGCTTCGCCTCCAAGTTCCAACCATCGGAGTCACCTAGTGCAG,9790 fluorescence intensity (a.u.)
5,CTACGTCGCCCGTGTCTCGTGCACTTCCTCTCTCGCTGACCGGAGTCACCTAGTGCAG,10300 fluorescence intensity (a.u.)
6,GTAGCGTTGCTTTCTTCATTTCTTCACCTGATATTCCCGTCGGAGTCACCTAGTGCAG,8940 fluorescence intensity (a.u.)
7,TTCTGTGTTCTTCTATATTTTGAGCTTACTTCATGTTTGTCGGAGTCACCTAGTGCAG,8260 fluorescence intensity (a.u.)
8,TTGGTCAGGGTCAACGTTGGTTGCTACTACTACTTGCTACCGGAGTCACCTAGTGCAG,8190 fluorescence intensity (a.u.)
9,CTGGATTGATTGGGAGTGTTGGGTTTCGGGCTAGATCTGGCGGAGTCACCTAGTGCAG,9850 fluorescence intensity (a.u.)
10,TTTTTTACCCCGTTTCATCCTCTGATCGATCTTTACCGCTCGGAGTCACCTAGTGCAG,9470 fluorescence intensity (a.u.)
11,TGCGCAGTAGTACACCACCATCACCACCACCAATGCATGCCGGAGTCACCTAGTGCAG,8060 fluorescence intensity (a.u.)
12,CGCTACCTTGACCCGTACGAAATTTCCTGGGCGAGACTGACGGAGTCACCTAGTGCAG,9970 fluorescence intensity (a.u.)
13,ACTACGTACTGTACCTTCTTCTTCTTCTTTTTTTTTACAACGGAGTCACCTAGTGCAG,12200 fluorescence intensity (a.u.)
14,GCCAACTTCCATTTTACAACCTCCCAGTACTCTTCCATTACGGAGTCACCTAGTGCAG,8280 fluorescence intensity (a.u.)
15,TCTAAGCTTTCATACCTTACTTCGAACTTTTCTATTGCAACGGAGTCACCTAGTGCAG,12800 fluorescence intensity (a.u.)
16,ATCCAATCCGCGCCCCAGCTCGTGAACTTCGCCGGCGCGCCGGAGTCACCTAGTGCAG,8280 fluorescence intensity (a.u.)
17,TCAAGGCCCAATTGTCAGCAGTACGGTCTCCACTATACATCGGAGTCACCTAGTGCAG,9360 fluorescence intensity (a.u.)
18,TCGGCTCCGCGCCTCTTCGACCTCGTGGGTGGGTGTGCGGCGGAGTCACCTAGTGCAG,8170 fluorescence intensity (a.u.)
19,TGCCGCCGTCTGCGAAAATTGCATTTAGCCCCTTGCCGTCCGGAGTCACCTAGTGCAG,10000 fluorescence intensity (a.u.)
20,TTTGCTCTGTTTGTTGCGCGATTTCTTCAGAACCTGCAGGCGGAGTCACCTAGTGCAG,9240 fluorescence intensity (a.u.)
21,TATTCCTCCGTTTTTCCATTCCTGCGATTCAAAGGGGCCCCGGAGTCACCTAGTGCAG,8460 fluorescence intensity (a.u.)

# 2 entries from above in another layout:
row	Sequence	binding signal
2	GCCACCGCTGCATCATCCCGCCTGTCTGCCTGCGCGCGCCCGGAGTCACCTAGTGCAG	15800 fluorescence intensity (a.u.)
3	TGGCGGCGGCGGTGGCGGCGGGCGGTGCTCTAATCGGGTCCGGAGTCACCTAGTGCAG	8110 fluorescence intensity (a.u.)

# Further entries:

row,Sequence,binding signal
1,GCTCCACATATTTACGTTGCACACCTGCGCTCGCATACAACGGAGTCACCTAGTGCAG,9440 fluorescence intensity (a.u.)
2,CAAATCAATCCGTTTCATGCATCATCATCCTCCTGTCGATCGGAGTCACCTAGTGCAG,9320 fluorescence intensity (a.u.)
3,GCTGGCTTTGTCCCCTTCATTTCTGTTCCATTTCCCATTCCGGAGTCACCTAGTGCAG,11400 fluorescence intensity (a.u.)
4,ATTAATTCGTTTATATTATCTTTTTCACGGCTTATTAATGCGGAGTCACCTAGTGCAG,8270 fluorescence intensity (a.u.)
5,ATCTCTCTGCCCAATCCGCCATCCCCATCCATCAGGCTAACGGAGTCACCTAGTGCAG,9170 fluorescence intensity (a.u.)
6,ATTGCTTTTTACCTATCCATCGGCAATGGCGTTCTTCGAGCGGAGTCACCTAGTGCAG,9550 fluorescence intensity (a.u.)
7,ATCCTCATCCTCTCTCTCCATCTCTCACCTCCTCATCCTTCGGAGTCACCTAGTGCAG,8610 fluorescence intensity (a.u.)
8,TTATTACTTTACCTTTCACATCCGTCCATCCTCACTATCACGGAGTCACCTAGTGCAG,11400 fluorescence intensity (a.u.)
9,TTATGTATATACTCTGATGATCACATGATACACATGATATCGGAGTCACCTAGTGCAG,8460 fluorescence intensity (a.u.)
10,TCCTCCGTCTCTTCGTCGACGCCCGCCGCAACCTGCCGCCCGGAGTCACCTAGTGCAG,8070 fluorescence intensity (a.u.)
11,CCTTTCCGATTACGTGTTGGACCTTGACCCTAGGCCATATCGGAGTCACCTAGTGCAG,8110 fluorescence intensity (a.u.)
12,ATGAGCCTCTGGGTCAACGCGGCGACCTGCGCGCGCTCCACGGAGTCACCTAGTGCAG,8130 fluorescence intensity (a.u.)
13,AAGTGCATTTTGTCTACATTCTTGCATTCACCATTTCACACGGAGTCACCTAGTGCAG,8340 fluorescence intensity (a.u.)
14,GACTAGTCCCTGTTTCCCAACACCATGCTTGTCTGAGTTACGGAGTCACCTAGTGCAG,9300 fluorescence intensity (a.u.)
15,TTGAGCCGTTGTTACCCATATCTTGTCTCTCTTCTTTCTCCGGAGTCACCTAGTGCAG,9300 fluorescence intensity (a.u.)
16,AGGCATCTAACTATTTACCACTTTTAGATTTGACATTTACCGGAGTCACCTAGTGCAG,9330 fluorescence intensity (a.u.)
17,AGGGATAAAGATTTCTGGTTTTGGGGTTTCGGGATGTCATCGGAGTCACCTAGTGCAG,12100 fluorescence intensity (a.u.)
18,GCTGAGGTTTTTGCTCTTTGACTTTTTGTGGTTGCTCATACGGAGTCACCTAGTGCAG,13600 fluorescence intensity (a.u.)
19,ATTTTCAATCTTAAATTTAAAGTTGATTTTGGGGTTTTTTCGGAGTCACCTAGTGCAG,9040 fluorescence intensity (a.u.)
20,GACACACAACCAAGGTCCAGTTTAGTTACCATCCTATGTTCGGAGTCACCTAGTGCAG,9240 fluorescence intensity (a.u.)
21,AAGGTCGCCGTCTCCATCTCGTCTCCCTCGCCGCCGCCTCCGGAGTCACCTAGTGCAG,10900 fluorescence intensity (a.u.)
